From article PMC7286146
No constants are given. Whether binding was seen depends on the method and setting.

Amino acid sequences for entries named in this document (tags omitted). Residues count along the entry.
UniProt P02769, residues 25-607: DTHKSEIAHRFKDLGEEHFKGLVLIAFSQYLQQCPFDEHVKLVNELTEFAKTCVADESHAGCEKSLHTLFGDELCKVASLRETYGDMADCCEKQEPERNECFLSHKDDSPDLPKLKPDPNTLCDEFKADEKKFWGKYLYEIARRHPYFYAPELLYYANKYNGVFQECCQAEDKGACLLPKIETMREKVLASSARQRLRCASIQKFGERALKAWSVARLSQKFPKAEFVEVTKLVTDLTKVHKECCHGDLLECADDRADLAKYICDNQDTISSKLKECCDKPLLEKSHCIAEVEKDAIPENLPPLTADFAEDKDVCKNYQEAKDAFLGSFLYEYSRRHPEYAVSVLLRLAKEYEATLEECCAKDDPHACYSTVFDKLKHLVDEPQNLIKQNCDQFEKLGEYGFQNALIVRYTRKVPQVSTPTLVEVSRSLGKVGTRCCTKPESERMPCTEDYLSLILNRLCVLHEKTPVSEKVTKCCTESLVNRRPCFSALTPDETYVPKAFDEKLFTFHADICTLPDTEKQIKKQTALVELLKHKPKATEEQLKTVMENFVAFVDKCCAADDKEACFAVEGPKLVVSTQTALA

Target: Bovine serum albumin (bovine) (UniProt P02769)
Assay: dynamic light scattering; BSA dispersed in saline (0.9% NaCl) at pH 7.0, 22°C; size distribution in solution; both purified

Question: “Bovine serum albumin (from UniProt P02769 25-607)” was tested. Which binding did it give?
Answer: The binding was “no binding (condition: at pH 7.0 in saline)”.
